In the test the test system is L1210 leukemia ip in BDF1 mice, survival T/C. In words: NCI In Vivo Anticancer Drug Screen. Data for tumor model L1210 Leukemia (intraperitoneal) in B6D2F1 (BDF1) mice. To be noted: T/C endpoint: mean survival time, higher T/C = longer survival.
[1] abbreviates: dose: 50.0 mg/kg/injection, schedule: Q01DX009 (ip), vehicle: Klucel (hydroxypropylcellulose) (HPC).
Where [2] appears, read: dose: 200.0 mg/kg/injection, schedule: Q01DX001 (ip), vehicle: saline.
[3] abbreviates: dose: 100.0 mg/kg/injection, schedule: Q04DX002 (ip), vehicle: saline with Tween-80.

The list is a part of this screen's results and no random one: it is rich in T/C values a quarter to a half above the control, in often repeated tests (any T/C) and in doses without a T/C. Further doses and runs are listed elsewhere. T/C is the treated group as % of the vehicle group. Some doses have a count of surviving animals in place of a T/C: the source holds a T/C of zero for them, seemingly a mark for toxic or unscored doses. Some doses without a T/C left all or most animals alive at the check, yet need not have been tolerated: survival well below the control is almost never listed, so the zero probably covers shortened survival too. Survivors were counted at the toxicity check, usually on the fifth day, unless a day is given; later deaths do not show. Schedules are NCI's codes, taken here to give the interval after Q, in days (D) or hours (H), and the number of doses after X. Where survival is the endpoint, the PubChem record calls one and a half times the control and up active, and a quarter to a half above the control has no call in these data; cut-offs in other NCI protocols can differ. Some entries were tested several times; the values are given in rising order. Some schedule codes hold Z or #, which are not explained here. Some T/C values carry the count of animals alive at the toxicity check (mostly the fifth day); where none is given, no animal had died by that day.

For `CCN(CC)CCCC(C)Nc1cc(N)nc2nc(-c3ccc(Cl)cc3)c(-c3ccc(Cl)cc3)nc12` (stereo unspecified), the survivor count (dose: 150.0 mg/kg/injection, schedule: Q01DX001 (ip), vehicle: other) is 1 of 6; the survivor count (dose: 150.0 mg/kg/injection, schedule: Q01DX009 (ip), vehicle: Klucel (hydroxypropylcellulose) (HPC)) is on record as 0 of 6; the survivor count (dose: 300.0 mg/kg/injection, schedule: Q01DX001 (ip), vehicle: other) is listed as 0 of 6.

For the compound `CCCC1=NNc2n[nH]c(=S)n2N1`, the survivor count is 1 of 6 (dose: 100.0 mg/kg/injection, schedule: Q01DX009 (ip), vehicle: Klucel (hydroxypropylcellulose) (HPC)); 0 of 6 (dose: 200.0 mg/kg/injection, schedule: Q01DX009 (ip), vehicle: Klucel (hydroxypropylcellulose) (HPC)); 0 of 6 (dose: 400.0 mg/kg/injection, schedule: Q04DX003 (ip), vehicle: Klucel (hydroxypropylcellulose) (HPC)).

Regarding `CCCS(=O)[O-].CCCS(=O)[O-].[Zn+2]`, the survivor count (dose: 150.0 mg/kg/injection, schedule: Q01DX001 (ip), vehicle: saline) is recorded as 0 of 6 and the survivor count (dose: 300.0 mg/kg/injection, schedule: Q01DX001 (ip), vehicle: saline) was 0 of 6.

As for `C[CH2][Hg][S]c1nsc([S][Hg][CH2]C)n1`, the survivor count under setting [1] is given as 0 of 6.

As for `CCOc1ccc(/C=N/NC(=O)c2cccc3ccccc23)cc1OCC`, the survivor count under setting [2] is 4 of 4.

Take `CC[N+](CC)(Cc1cc([N+](=O)[O-])ccc1OC)Cc1cc([N+](=O)[O-])ccc1OC`: the survivor count was 1 of 6 (dose: 75.0 mg/kg/injection, schedule: Q01DX001 (ip), vehicle: carboxymethylcellulose (CMC)); 0 of 6 (dose: 150.0 mg/kg/injection, schedule: Q01DX001 (ip), vehicle: carboxymethylcellulose (CMC)); 0 of 6 (dose: 300.0 mg/kg/injection, schedule: Q01DX001 (ip), vehicle: carboxymethylcellulose (CMC)).

As for `CC1(C)Oc2[nH]c(=O)n(-c3ccccc3)c(=O)c2C1c1ccc(Cl)cc1` (stereo unspecified), the survivor count by setting is: (dose: 50.0 mg/kg/injection, schedule: Q04DX003 (ip), vehicle: acetone) 6 of 6; (dose: 100.0 mg/kg/injection, schedule: Q01DX001 (ip), vehicle: saline) 6 of 6; under setting [2], 6 of 6; (dose: 400.0 mg/kg/injection, schedule: Q01DX001 (ip), vehicle: saline) 0 of 6.

In the case of `Clc1ncnc2c1ncn2C1CCCCO1` (stereo unspecified), the T/C was 129 % of control (dose: 125.0 mg/kg/injection, schedule: Q01DX Z (ip), vehicle: other) and 129 % of control (dose: 250.0 mg/kg/injection, schedule: Q01DX Z (ip), vehicle: other).

Take `S=C(N/N=C/c1ccccn1)NC1CC2C=CC1C2` (stereo unspecified): the survivor count (dose: 400.0 mg/kg/injection, schedule: Q01DX009 (ip), vehicle: Klucel (hydroxypropylcellulose) (HPC)) is recorded as 3 of 6.

For `C=CCC(Cc1ccccc1)NCC1CC1` (stereo unspecified), the survivor count under setting [3] is 0 of 3; the survivor count (dose: 200.0 mg/kg/injection, schedule: Q04DX002 (ip), vehicle: saline with Tween-80) is given as 0 of 3; the survivor count (dose: 400.0 mg/kg/injection, schedule: Q04DX002 (ip), vehicle: saline with Tween-80) is given as 0 of 3.

For `NC(N)=N/N=C(\C=N\N=C(N)N)c1ccc(CCc2ccc(C(/C=N/N=C(N)N)=N\N=C(N)N)cc2)cc1`, the survivor count reads like this: (dose: 6.25 mg/kg/injection, schedule: Q04DX003 (ip), vehicle: saline) 2 of 6; (dose: 12.5 mg/kg/injection, schedule: Q04DX003 (ip), vehicle: saline) 2 of 6; (dose: 25.0 mg/kg/injection, schedule: Q04DX003 (ip), vehicle: saline) 0 of 6; (dose: 50.0 mg/kg/injection, schedule: Q04DX003 (ip), vehicle: saline) 1 of 6; (dose: 100.0 mg/kg/injection, schedule: Q04DX003 (ip), vehicle: saline) 0 of 6; (dose: 200.0 mg/kg/injection, schedule: Q04DX003 (ip), vehicle: saline) 0 of 6. In addition, the survivor count (dose: 400.0 mg/kg/injection, schedule: Q04DX003 (ip), vehicle: saline) was 0 of 6.

On to `CC(/C=C/C(O)=C1/C(=O)CNC1=O)=C\[C@@H](C)[C@H]1O[C@@]2(C)O[C@H](C(=O)[C@@H]3O[C@@]32C)[C@@H]1C`, for which the survivor count reads like this: (dose: 200.0 mg/kg/injection, schedule: Q04DX003 (ip), vehicle: acetone) 6 of 6; (dose: 400.0 mg/kg/injection, schedule: Q04DX003 (ip), vehicle: acetone) 6 of 6.

For the compound `CCCCCCCCCCCCCCCCNC(=S)NCCCCCCCCCCCCCCCC`, the survivor count was 3 of 3 (dose: 100.0 mg/kg/injection, schedule: Q04DX002 (ip), vehicle: Klucel (hydroxypropylcellulose) (HPC)); 3 of 3 (dose: 200.0 mg/kg/injection, schedule: Q04DX002 (ip), vehicle: Klucel (hydroxypropylcellulose) (HPC)); 3 of 3 (dose: 400.0 mg/kg/injection, schedule: Q04DX002 (ip), vehicle: Klucel (hydroxypropylcellulose) (HPC)).

Regarding `Nc1nc(=S)c2[nH]c(N=Nc3ccc(S(=O)(=O)Nc4nccs4)cc3)nc2[nH]1`, the T/C reads like this: (dose: 22.0 mg/kg/injection, schedule: Q01DX001 (ip), vehicle: Klucel (hydroxypropylcellulose) (HPC)) 130 % of control; (dose: 50.0 mg/kg/injection, schedule: Q01DX001 (ip), vehicle: saline with Tween-80) 148 % of control; (dose: 100.0 mg/kg/injection, schedule: Q01DX001 (ip), vehicle: Klucel (hydroxypropylcellulose) (HPC)) 140 % of control; (dose: 100.0 mg/kg/injection, schedule: Q01DX001 (ip), vehicle: saline with Tween-80) 149 % of control; (dose: 200.0 mg/kg/injection, schedule: Q01DX001 (ip), vehicle: Klucel (hydroxypropylcellulose) (HPC)) 134 and 142 % of control; (dose: 200.0 mg/kg/injection, schedule: Q01DX001 (ip), vehicle: saline with Tween-80) 134 % of control [5 of 6 alive]. Moreover, the survivor count is reported as 6 of 6 (dose: 25.0 mg/kg/injection, schedule: Q01DX009 (ip), vehicle: Klucel (hydroxypropylcellulose) (HPC)); 0 of 6 (dose: 50.0 mg/kg/injection, schedule: Q01DX001 (ip), vehicle: Klucel (hydroxypropylcellulose) (HPC)); 5 of 6 under setting [1]; 1 of 6 (dose: 400.0 mg/kg/injection, schedule: Q01DX001 (ip), vehicle: Klucel (hydroxypropylcellulose) (HPC)).

`CCN(CC)CCC(C=NCC(CCN(CC)CC)(c1cccc2ccccc12)C(C)C)(c1cccc2ccccc12)C(C)C` (stereo unspecified): the survivor count is, setting by setting: (dose: 6.25 mg/kg/injection, schedule: Q04DX002 (ip), vehicle: saline + alcohol) 3 of 3; (dose: 50.0 mg/kg/injection, schedule: Q04DX002 (ip), vehicle: saline with Tween-80) 2 of 3; (dose: 100.0 mg/kg/injection, schedule: Q04DX002 (ip), vehicle: saline + alcohol) 3 of 3; under setting [3], 0 of 3; (dose: 200.0 mg/kg/injection, schedule: Q04DX002 (ip), vehicle: saline + alcohol) 1 of 3; (dose: 400.0 mg/kg/injection, schedule: Q04DX002 (ip), vehicle: saline + alcohol) 2 of 3.

For `COc1ccc(CN2CC(C)N(N)C(C)C2)cc1` (stereo unspecified), the survivor count runs as follows: (dose: 50.0 mg/kg/injection, schedule: Q01DX005 (ip), vehicle: saline) 0 of 3; (dose: 200.0 mg/kg/injection, schedule: Q01DX005 (ip), vehicle: saline) 0 of 3; (dose: 400.0 mg/kg/injection, schedule: Q01DX005 (ip), vehicle: saline) 0 of 3.

On to `CCCS/C(N)=N/N=C/c1ccc([N+](=O)[O-])o1`, for which the survivor count was 2 of 4 (dose: 200.0 mg/kg/injection, schedule: Q01DX001 (ip), vehicle: other) and 0 of 4 (dose: 400.0 mg/kg/injection, schedule: Q01DX001 (ip), vehicle: other).

The values above are taken from PubChem BioAssay AID248 (DTP/NCI, 2004).
